Source: PubChem BioAssay AID1053209 (Peter MacCallum Cancer Centre, 2014)
Shown is an unselected part of about 1,580 reagents. 207 of all reagents (13%) were called active. 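Rows are single siRNAs; four siRNAs per gene were tested, a gene counting as confirmed only when at least two agree.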 Reagents against one gene are numbered here. Further read-outs or replicates are left out here.

Test: 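Knock-downs that sensitise mouse osteosarcoma cells to doxorubicin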 (follow-up of hits)
Cells: mouse primary osteosarcoma cells
Reagents: single siRNA against mouse genes, 25 nM (text also states 40 nM)
Time to read-out: about 120 h (48 h before drug, then 72 h with drug)
Treatment: doxorubicin 100 nM (about IC30-40), added 48 h after transfection, for 72 h
Read-out: 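ATP-based luminescent viability, with or without doxorubicin, relative to non-targeting control NT1, mean of two replicates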
Direction: viability with doxorubicin, vs NT1: higher = more viable cells under doxorubicin; viability without drug, vs NT1: higher = more viable cells without drug
Hit rule: 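Counted as active (class LC dox) if viability falls to 0.7 of NT1 or below under doxorubicin but stays within 0.7 to 1.1 without drug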

{"Target gene": "Psmb7 (GeneID 19177)", "reagent no.": 1, "combined effect class": "low viability with and without drug", "viability with doxorubicin, vs NT1": 0.31, "viability without drug, vs NT1": 0.56, "Outcome": "inactive"}
{"Target gene": "Psmb7 (GeneID 19177)", "reagent no.": 2, "combined effect class": "normal viability with and without drug", "viability with doxorubicin, vs NT1": 0.78, "viability without drug, vs NT1": 0.82, "Outcome": "inactive"}
{"Target gene": "Psmb7 (GeneID 19177)", "reagent no.": 3, "combined effect class": "low viability only with doxorubicin; normal without drug", "viability with doxorubicin, vs NT1": 0.64, "viability without drug, vs NT1": 0.75, "Outcome": "active"}
{"Target gene": "Psmb7 (GeneID 19177)", "reagent no.": 4, "combined effect class": "normal viability with and without drug", "viability with doxorubicin, vs NT1": 0.74, "viability without drug, vs NT1": 0.78, "Outcome": "inactive"}
{"Target gene": "Rab4a (GeneID 19341)", "reagent no.": 1, "combined effect class": "normal viability with and without drug", "viability with doxorubicin, vs NT1": 0.94, "viability without drug, vs NT1": 0.94, "Outcome": "inactive"}
{"Target gene": "Rab4a (GeneID 19341)", "reagent no.": 2, "combined effect class": "high viability only with doxorubicin", "viability with doxorubicin, vs NT1": 1.12, "viability without drug, vs NT1": 1.02, "Outcome": "inactive"}
{"Target gene": "Rab4a (GeneID 19341)", "reagent no.": 3, "combined effect class": "normal viability with and without drug", "viability with doxorubicin, vs NT1": 0.95, "viability without drug, vs NT1": 0.94, "Outcome": "inactive"}
{"Target gene": "Rab4a (GeneID 19341)", "reagent no.": 4, "combined effect class": "normal viability with and without drug", "viability with doxorubicin, vs NT1": 0.79, "viability without drug, vs NT1": 0.94, "Outcome": "inactive"}
{"Target gene": "Ikzf4 (GeneID 22781)", "reagent no.": 1, "combined effect class": "normal viability with and without drug", "viability with doxorubicin, vs NT1": 1.06, "viability without drug, vs NT1": 1.05, "Outcome": "inactive"}
{"Target gene": "Ikzf4 (GeneID 22781)", "reagent no.": 2, "combined effect class": "high viability only with doxorubicin", "viability with doxorubicin, vs NT1": 1.12, "viability without drug, vs NT1": 1.01, "Outcome": "inactive"}
{"Target gene": "Ikzf4 (GeneID 22781)", "reagent no.": 3, "combined effect class": "normal viability with and without drug", "viability with doxorubicin, vs NT1": 1.04, "viability without drug, vs NT1": 0.92, "Outcome": "inactive"}
{"Target gene": "Ikzf4 (GeneID 22781)", "reagent no.": 4, "combined effect class": "normal viability with and without drug", "viability with doxorubicin, vs NT1": 0.98, "viability without drug, vs NT1": 0.86, "Outcome": "inactive"}
{"Target gene": "Swi5 (GeneID 72931)", "reagent no.": 1, "combined effect class": "normal viability with and without drug", "viability with doxorubicin, vs NT1": 1.06, "viability without drug, vs NT1": 1.04, "Outcome": "inactive"}
{"Target gene": "Swi5 (GeneID 72931)", "reagent no.": 2, "combined effect class": "high viability only with doxorubicin", "viability with doxorubicin, vs NT1": 1.1, "viability without drug, vs NT1": 1.05, "Outcome": "inactive"}
{"Target gene": "Swi5 (GeneID 72931)", "reagent no.": 3, "combined effect class": "normal viability with and without drug", "viability with doxorubicin, vs NT1": 1.04, "viability without drug, vs NT1": 1.03, "Outcome": "inactive"}
{"Target gene": "Swi5 (GeneID 72931)", "reagent no.": 4, "combined effect class": "normal viability with and without drug", "viability with doxorubicin, vs NT1": 0.78, "viability without drug, vs NT1": 0.97, "Outcome": "inactive"}
{"Target gene": "Cpq (GeneID 54381)", "reagent no.": 1, "combined effect class": "normal viability with and without drug", "viability with doxorubicin, vs NT1": 1.04, "viability without drug, vs NT1": 0.97, "Outcome": "inactive"}
{"Target gene": "Cpq (GeneID 54381)", "reagent no.": 2, "combined effect class": "normal viability with and without drug", "viability with doxorubicin, vs NT1": 0.76, "viability without drug, vs NT1": 0.88, "Outcome": "inactive"}
{"Target gene": "Cpq (GeneID 54381)", "reagent no.": 3, "combined effect class": "normal viability with and without drug", "viability with doxorubicin, vs NT1": 0.92, "viability without drug, vs NT1": 0.96, "Outcome": "inactive"}
{"Target gene": "Cpq (GeneID 54381)", "reagent no.": 4, "combined effect class": "normal viability with and without drug", "viability with doxorubicin, vs NT1": 1.07, "viability without drug, vs NT1": 0.85, "Outcome": "inactive"}
{"Target gene": "Adcy2 (GeneID 210044)", "reagent no.": 1, "combined effect class": "normal viability with and without drug", "viability with doxorubicin, vs NT1": 1.04, "viability without drug, vs NT1": 1.06, "Outcome": "inactive"}
{"Target gene": "Adcy2 (GeneID 210044)", "reagent no.": 2, "combined effect class": "normal viability with and without drug", "viability with doxorubicin, vs NT1": 0.95, "viability without drug, vs NT1": 0.91, "Outcome": "inactive"}
{"Target gene": "Adcy2 (GeneID 210044)", "reagent no.": 3, "combined effect class": "normal viability with and without drug", "viability with doxorubicin, vs NT1": 0.88, "viability without drug, vs NT1": 1.08, "Outcome": "inactive"}
{"Target gene": "Adcy2 (GeneID 210044)", "reagent no.": 4, "combined effect class": "normal viability with and without drug", "viability with doxorubicin, vs NT1": 1.02, "viability without drug, vs NT1": 1, "Outcome": "inactive"}
{"Target gene": "Son (GeneID 20658)", "reagent no.": 1, "combined effect class": "low viability with and without drug", "viability with doxorubicin, vs NT1": 0.08, "viability without drug, vs NT1": 0.18, "Outcome": "inactive"}
{"Target gene": "Son (GeneID 20658)", "reagent no.": 2, "combined effect class": "low viability with and without drug", "viability with doxorubicin, vs NT1": 0.17, "viability without drug, vs NT1": 0.29, "Outcome": "inactive"}
{"Target gene": "Son (GeneID 20658)", "reagent no.": 3, "combined effect class": "low viability with and without drug", "viability with doxorubicin, vs NT1": 0.28, "viability without drug, vs NT1": 0.65, "Outcome": "inactive"}
{"Target gene": "Son (GeneID 20658)", "reagent no.": 4, "combined effect class": "low viability with and without drug", "viability with doxorubicin, vs NT1": 0.18, "viability without drug, vs NT1": 0.57, "Outcome": "inactive"}

Look-ups from above.
Entry for Swi5 (GeneID 72931) #4 in “combined effect class”: normal viability with and without drug
For “viability without drug, vs NT1”, Adcy2 (GeneID 210044) #3 reads 1.08
Son (GeneID 20658) #4, viability with doxorubicin, vs NT1 → 0.18
